Data source: PubChem BioAssay AID686937 (Drosophila RNAi Screening Center, 2013)

Screen: 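Genes in the fly needed for secretion of protein constitutively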 (primary screen)
Cells: Drosophila S2 cells expressing secreted horseradish peroxidase
Reagents: long dsRNA against Drosophila genes
Duration: about 5.5 days (5 days dsRNA, then 12 h reporter induction)
Conditions: reporter expression induced after 5 days of dsRNA, read 12 h later; inducer not stated
Measurement: 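Chemiluminescent measurement of peroxidase in the medium 12 h after reporter induction, following 5 days of dsRNA, given as a z-score per plate; higher means more secretion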
Reading the numbers: z-score: higher = more reporter secreted into medium
The deposit covers about 23,000 reagents; below is an unselected part of those that have a named target and a result. 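Reduced-secretion tags in replicate 1 do not always agree with the z-scores; no criterion for assigning the tags was given.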 A plus sign joins genes that one reagent is predicted to hit. Not given: the amount of reagent.

Target gene | amplicon | z-score, replicate 1 | z-score, replicate 2 | z-score, replicate 3 | z-score, replicate 4 | phenotype, replicate 1
vg | DRSC07715 | 0.4 | 0.59 | 0.47 | 0.34 | –
vg | DRSC22669 | -0.74 | 0.3 | – | – | –
CG9436 | DRSC05005 | 0.3 | 0.43 | – | – | –
Fdx2 | DRSC08306 | 0.41 | 0.17 | – | – | –
CG7565 | DRSC10881 | 0.36 | 0.53 | – | – | –
CG3473 | DRSC01915 | -0.05 | 0.27 | – | – | –
Tomosyn | DRSC19365 | 0.12 | 0.5 | – | – | –
Tomosyn | DRSC19692 | -6.37 | 0.61 | 0.67 | -7.7 | –
Tomosyn | DRSC19782 | 0.12 | 0.41 | – | – | –
Tomosyn | DRSC19842 | 0.26 | 0.63 | 0.94 | 0.2 | –
Ent1 | DRSC00330 | 0.2 | 0.5 | – | – | –
CG6878 | DRSC10737 | 0.22 | -0.11 | – | – | –
Atf3 | DRSC17225 | -0.5 | -0.7 | – | – | –
CG15209 | DRSC19655 | 0.51 | 0.5 | – | – | –
CG4456 + Hsp22 | DRSC11187 | 0.32 | 0.73 | – | – | –
CG4456 + Hsp22 | DRSC11192 | 0.43 | 0.35 | – | – | –
Hinfp | DRSC18484 | 0.34 | 0.49 | – | – | –
CG12056 | DRSC17796 | 0.52 | 0.36 | – | – | –
CG31102 | DRSC14260 | 0.28 | 0.21 | – | – | –
Ugt35E1 | DRSC15193 | 0.45 | 0.35 | – | – | –
CG12105 | DRSC08255 | 0.43 | 0.36 | – | – | –
CG9521 | DRSC20196 | 0.24 | 0.17 | – | – | –
Slc45-1 | DRSC10427 | 0.45 | 0.03 | – | – | –
CG6006 | DRSC13137 | 0.54 | -0.18 | – | – | –
CG6006 | DRSC15946 | 0.51 | 0.46 | – | – | –
CG6527 | DRSC10659 | 0.46 | 0.5 | – | – | –
vas (retired record) | DRSC22007 | 0.25 | -0.15 | – | – | –
Hel25E | DRSC03342 | -5.15 | -5.84 | – | – | reduced secretion
Acsf2 | DRSC02172 | 0.43 | 0.49 | – | – | –
CG13875 | DRSC08345 | 0.09 | 0.34 | – | – | –
Dsp1 | DRSC20315 | -8.77 | -5.28 | – | – | reduced secretion
CG4572 | DRSC15603 | 0.31 | 0.31 | – | – | –
Myd88 | DRSC06815 | 0.05 | 0.28 | – | – | –
Ldh | DRSC11198 | 0.25 | 0.22 | – | – | –
Hsc70-3 | DRSC20253 | -4.06 | -3.58 | – | – | reduced secretion
CG7079 | DRSC16192 | -3.76 | 0.02 | – | – | reduced secretion
CG5808 | DRSC14124 | -0.22 | -0.13 | – | – | –

13 consecutive reagents from above, for reference:
Target gene | amplicon | z-score, replicate 1 | z-score, replicate 2 | z-score, replicate 3 | z-score, replicate 4 | phenotype, replicate 1
Ugt35E1 | DRSC15193 | 0.45 | 0.35 | – | – | –
CG12105 | DRSC08255 | 0.43 | 0.36 | – | – | –
CG9521 | DRSC20196 | 0.24 | 0.17 | – | – | –
Slc45-1 | DRSC10427 | 0.45 | 0.03 | – | – | –
CG6006 | DRSC13137 | 0.54 | -0.18 | – | – | –
CG6006 | DRSC15946 | 0.51 | 0.46 | – | – | –
CG6527 | DRSC10659 | 0.46 | 0.5 | – | – | –
vas (retired record) | DRSC22007 | 0.25 | -0.15 | – | – | –
Hel25E | DRSC03342 | -5.15 | -5.84 | – | – | reduced secretion
Acsf2 | DRSC02172 | 0.43 | 0.49 | – | – | –
CG13875 | DRSC08345 | 0.09 | 0.34 | – | – | –
Dsp1 | DRSC20315 | -8.77 | -5.28 | – | – | reduced secretion
CG4572 | DRSC15603 | 0.31 | 0.31 | – | – | –

The results go on.
Target gene | amplicon | z-score, replicate 1 | z-score, replicate 2 | z-score, replicate 3 | z-score, replicate 4 | phenotype, replicate 1
sens-2 | DRSC02136 | 0.23 | 0.21 | – | – | –
sens-2 | DRSC02613 | 0.1 | 0.26 | – | – | –
sens-2 | DRSC21374 | -0.8 | -0.45 | – | – | reduced secretion
CG14362 | DRSC14824 | -0.03 | 0.43 | – | – | –
CG30020 | DRSC06252 | 0.8 | 0.38 | – | – | –
CG30020 | DRSC06730 | -0.67 | -0.68 | – | – | –
CG13705 | DRSC08314 | 0.41 | 0.27 | – | – | –
CG13705 | DRSC22691 | -0.08 | -0.64 | – | – | –
AMPdeam | DRSC18996 | 0.25 | -1.57 | – | – | –
AMPdeam | DRSC19366 | -0.86 | -0.29 | – | – | –
AMPdeam | DRSC19368 | -2.19 | -1.54 | – | – | reduced secretion
AMPdeam | DRSC19727 | 0.43 | 0.47 | – | – | –
CG11889 + CG11891 | DRSC14426 | 0.28 | 0.29 | – | – | –
CG11889 + CG11891 | DRSC14427 | 0.45 | 0.37 | – | – | –
CG32053 | DRSC10683 | 0.29 | 0.33 | – | – | –
S-Lap8 | DRSC06870 | 0.05 | 0.24 | 0.34 | 0.32 | –
S-Lap8 | DRSC21372 | 0.24 | -0.72 | – | – | –
CG5506 | DRSC10511 | 0.42 | 0.34 | – | – | –
CG43088 | DRSC19055 | 0.3 | -0.48 | – | – | –
CG43088 | DRSC21407 | -0.63 | -0.13 | – | – | reduced secretion
CG33290 | DRSC11493 | 0.49 | 0.12 | – | – | –
nwk | DRSC10439 | -0.23 | 0.48 | – | – | –
nwk | DRSC10442 | 0.41 | 0.09 | – | – | –
beat-Va | DRSC14192 | -0.1 | -0.29 | – | – | –
Cp38 | DRSC18453 | 0.38 | 0.58 | – | – | –
yip3 | DRSC04724 | 0.26 | 0.29 | – | – | –
CG30016 | DRSC05242 | 0.83 | 0.44 | – | – | –
CG13088 | DRSC02192 | 0.06 | 0.23 | – | – | –
CG3703 | DRSC18172 | 0.51 | 0.47 | – | – | –
CG3703 | DRSC18173 | 0.31 | 0.46 | – | – | –
CG3703 | DRSC18643 | 0.27 | 0.38 | – | – | –
CG33225 | DRSC03881 | 0 | -0.84 | – | – | –
CG17287 | DRSC06659 | 0.62 | 0.39 | – | – | –
CstF50 | DRSC15434 | 0.4 | 0.39 | – | – | –
CG5056 | DRSC02808 | 0 | 0.06 | – | – | –
CG33258 | DRSC09415 | 0.01 | 0.22 | – | – | –
CG14805 | DRSC18554 | 0.04 | -0.05 | – | – | –
CG1894 | DRSC15396 | 0.42 | 0.25 | – | – | –
CG33958 | DRSC06472 | 0.15 | 0.2 | – | – | –
CG33958 | DRSC06944 | 0.09 | 0.1 | – | – | –
CG32407 | DRSC09789 | 0.33 | 0.53 | – | – | –
imd | DRSC05928 | 0.01 | 0.39 | – | – | –
Rbp1 | DRSC16817 | 0.34 | 0.46 | – | – | –
dpr5 | DRSC15766 | 0.19 | 0.44 | – | – | –
CG32582 (retired record) | DRSC19114 | -0.17 | 1.38 | – | – | –
CG34178 + CG34177 | DRSC00351 | 0.39 | 0.36 | – | – | –
Agpat4 | DRSC10446 | 0.2 | 0.2 | – | – | –
Sidpn | DRSC02056 | 0.23 | 0.25 | – | – | –
Arms | DRSC03856 | 0.44 | 0.7 | 0.23 | 0.58 | –
Arms | DRSC03857 | 0.04 | 0.28 | – | – | –
Arms | DRSC04052 | 0.51 | 0.45 | – | – | –
Arms | DRSC04256 | -3.54 | -3.51 | – | – | reduced secretion
p120ctn | DRSC07753 | 0.41 | 0.31 | – | – | –
GstD9 | DRSC14185 | 0.09 | 0.21 | – | – | –
COX5B | DRSC02115 | -0.11 | -0.79 | – | – | –
CG13793 | DRSC02297 | 0.46 | 0.08 | – | – | –
CG6154 | DRSC15977 | 0.23 | 0.07 | – | – | –
Tango1 | DRSC02127 | -1.62 | -2.63 | – | – | reduced secretion
CG5003 | DRSC15694 | 0.56 | 0.12 | – | – | –
ng1 | DRSC18802 | 0.03 | -0.04 | – | – | –
Tmlh | DRSC15563 | 0.31 | 0.38 | – | – | –
Mkk4 | DRSC16739 | 0.27 | 0.39 | – | – | –
bcd + CR14578 | DRSC20984 | 0.42 | 0.25 | – | – | –
CG17493 | DRSC03798 | -0.66 | -0.46 | – | – | –
Cib2 | DRSC04535 | 0.43 | 0.26 | – | – | –
CG4199 | DRSC18519 | 0.31 | 0.65 | – | – | –
CG4199 | DRSC21314 | 0.28 | 0.81 | – | – | –
